From article PMC4624675
Results are given in words; binding and its absence hold for the method and conditions named. Binding seen in cells or lysates may run through a third protein. Some binding calls cover weakened binding; strength is not graded here. For part of these data: Tags and fused reporters may be left off the sequences shown.

Amino acid sequences for entries named in this document (tags omitted). A change or cut given only in a name is not applied to a line headed by its entry.
UniProt Q2YD98: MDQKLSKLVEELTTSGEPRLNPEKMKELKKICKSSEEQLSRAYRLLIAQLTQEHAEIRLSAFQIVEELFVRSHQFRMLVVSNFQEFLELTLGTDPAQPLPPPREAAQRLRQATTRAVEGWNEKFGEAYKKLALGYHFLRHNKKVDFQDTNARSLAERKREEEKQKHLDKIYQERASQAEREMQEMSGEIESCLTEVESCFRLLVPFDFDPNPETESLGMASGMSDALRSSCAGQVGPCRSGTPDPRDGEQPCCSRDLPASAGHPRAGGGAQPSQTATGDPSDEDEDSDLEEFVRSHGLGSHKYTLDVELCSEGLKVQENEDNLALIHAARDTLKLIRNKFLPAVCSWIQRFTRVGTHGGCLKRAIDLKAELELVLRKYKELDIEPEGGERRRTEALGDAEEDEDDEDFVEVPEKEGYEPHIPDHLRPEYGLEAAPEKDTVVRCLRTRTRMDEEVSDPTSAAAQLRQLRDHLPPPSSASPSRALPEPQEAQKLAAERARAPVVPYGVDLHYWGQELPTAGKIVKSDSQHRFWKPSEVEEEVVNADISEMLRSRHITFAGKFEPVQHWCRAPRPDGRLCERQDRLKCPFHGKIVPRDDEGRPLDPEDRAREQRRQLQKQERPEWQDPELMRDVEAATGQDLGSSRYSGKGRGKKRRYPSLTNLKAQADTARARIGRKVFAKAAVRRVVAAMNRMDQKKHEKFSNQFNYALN
UniProt P26358: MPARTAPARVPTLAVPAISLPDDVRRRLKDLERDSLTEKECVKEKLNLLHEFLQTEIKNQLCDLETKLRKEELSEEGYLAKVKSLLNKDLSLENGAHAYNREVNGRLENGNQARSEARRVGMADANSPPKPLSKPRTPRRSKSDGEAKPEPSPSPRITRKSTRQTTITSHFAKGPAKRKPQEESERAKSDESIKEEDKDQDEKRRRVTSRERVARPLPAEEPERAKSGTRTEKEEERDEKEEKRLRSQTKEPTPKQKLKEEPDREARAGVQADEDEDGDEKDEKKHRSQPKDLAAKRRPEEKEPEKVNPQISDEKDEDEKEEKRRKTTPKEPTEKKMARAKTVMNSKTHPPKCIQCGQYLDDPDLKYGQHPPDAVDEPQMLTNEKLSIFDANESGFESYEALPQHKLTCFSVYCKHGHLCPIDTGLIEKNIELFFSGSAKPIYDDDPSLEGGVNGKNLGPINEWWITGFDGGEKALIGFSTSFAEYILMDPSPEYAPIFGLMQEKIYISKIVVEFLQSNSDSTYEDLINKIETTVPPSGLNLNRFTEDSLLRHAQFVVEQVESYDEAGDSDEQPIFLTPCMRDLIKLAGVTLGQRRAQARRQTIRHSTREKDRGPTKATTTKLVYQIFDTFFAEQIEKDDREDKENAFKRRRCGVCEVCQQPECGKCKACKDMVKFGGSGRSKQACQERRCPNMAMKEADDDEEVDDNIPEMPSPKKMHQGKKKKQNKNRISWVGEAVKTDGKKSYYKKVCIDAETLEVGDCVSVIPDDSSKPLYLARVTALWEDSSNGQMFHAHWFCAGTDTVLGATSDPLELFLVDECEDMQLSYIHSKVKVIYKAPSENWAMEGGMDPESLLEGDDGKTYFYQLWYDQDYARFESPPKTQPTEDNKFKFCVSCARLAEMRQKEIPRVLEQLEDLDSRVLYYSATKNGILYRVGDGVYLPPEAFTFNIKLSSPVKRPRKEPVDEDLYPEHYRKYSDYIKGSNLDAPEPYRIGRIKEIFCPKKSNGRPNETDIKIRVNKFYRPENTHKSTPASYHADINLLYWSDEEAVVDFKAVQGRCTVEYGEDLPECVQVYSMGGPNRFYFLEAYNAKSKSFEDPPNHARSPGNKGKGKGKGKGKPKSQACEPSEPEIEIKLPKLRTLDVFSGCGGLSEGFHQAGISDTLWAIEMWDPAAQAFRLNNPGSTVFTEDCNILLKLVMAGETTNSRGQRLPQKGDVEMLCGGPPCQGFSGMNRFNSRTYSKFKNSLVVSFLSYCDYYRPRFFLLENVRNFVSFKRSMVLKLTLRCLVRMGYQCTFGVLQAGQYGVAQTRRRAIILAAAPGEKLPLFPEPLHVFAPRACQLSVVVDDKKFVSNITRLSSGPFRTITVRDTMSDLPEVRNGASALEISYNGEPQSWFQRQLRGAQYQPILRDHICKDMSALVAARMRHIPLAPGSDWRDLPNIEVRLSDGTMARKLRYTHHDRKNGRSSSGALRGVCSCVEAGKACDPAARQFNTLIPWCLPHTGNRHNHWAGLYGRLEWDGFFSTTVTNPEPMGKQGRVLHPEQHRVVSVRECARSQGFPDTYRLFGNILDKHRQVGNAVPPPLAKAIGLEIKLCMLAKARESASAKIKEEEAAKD
UniProt Q93009: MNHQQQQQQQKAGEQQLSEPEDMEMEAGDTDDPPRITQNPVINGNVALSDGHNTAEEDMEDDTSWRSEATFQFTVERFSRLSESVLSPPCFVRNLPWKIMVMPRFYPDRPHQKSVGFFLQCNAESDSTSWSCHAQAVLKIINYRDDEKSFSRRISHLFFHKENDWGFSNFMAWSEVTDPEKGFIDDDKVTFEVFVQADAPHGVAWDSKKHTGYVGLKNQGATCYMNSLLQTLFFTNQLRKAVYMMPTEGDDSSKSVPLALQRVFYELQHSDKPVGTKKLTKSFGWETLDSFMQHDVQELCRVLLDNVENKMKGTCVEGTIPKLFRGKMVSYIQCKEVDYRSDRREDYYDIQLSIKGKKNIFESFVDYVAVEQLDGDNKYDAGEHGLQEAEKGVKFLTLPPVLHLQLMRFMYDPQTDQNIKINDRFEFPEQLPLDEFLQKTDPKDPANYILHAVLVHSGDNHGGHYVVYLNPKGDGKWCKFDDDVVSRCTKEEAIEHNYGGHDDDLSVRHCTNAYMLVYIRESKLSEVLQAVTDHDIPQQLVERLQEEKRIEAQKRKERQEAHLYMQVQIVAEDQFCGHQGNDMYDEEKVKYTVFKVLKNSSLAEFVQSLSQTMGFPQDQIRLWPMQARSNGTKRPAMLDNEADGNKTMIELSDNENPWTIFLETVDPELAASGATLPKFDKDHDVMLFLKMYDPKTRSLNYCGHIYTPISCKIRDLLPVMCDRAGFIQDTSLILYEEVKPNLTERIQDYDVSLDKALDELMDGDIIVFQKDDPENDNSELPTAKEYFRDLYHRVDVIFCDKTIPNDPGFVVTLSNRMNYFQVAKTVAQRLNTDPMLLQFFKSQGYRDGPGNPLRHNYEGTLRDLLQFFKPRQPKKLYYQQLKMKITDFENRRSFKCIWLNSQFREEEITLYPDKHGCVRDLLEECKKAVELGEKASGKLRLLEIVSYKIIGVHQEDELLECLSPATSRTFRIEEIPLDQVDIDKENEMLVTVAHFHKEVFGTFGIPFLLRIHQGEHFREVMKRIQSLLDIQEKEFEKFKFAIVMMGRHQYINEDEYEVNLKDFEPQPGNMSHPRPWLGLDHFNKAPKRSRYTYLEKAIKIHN

Columns and labels:
Test in all cases: co-IP; HEK293T cells transiently co-transfected with FLAG-tagged proteins and GFP-tagged USP7 (wild-type and mutants), immunoprecipitation, immunoblotting; which tag was precipitated is not told
[1] = biological target: T1, FLAG-tagged WDR21a (UniProt Q8WV16)
T1 sequence: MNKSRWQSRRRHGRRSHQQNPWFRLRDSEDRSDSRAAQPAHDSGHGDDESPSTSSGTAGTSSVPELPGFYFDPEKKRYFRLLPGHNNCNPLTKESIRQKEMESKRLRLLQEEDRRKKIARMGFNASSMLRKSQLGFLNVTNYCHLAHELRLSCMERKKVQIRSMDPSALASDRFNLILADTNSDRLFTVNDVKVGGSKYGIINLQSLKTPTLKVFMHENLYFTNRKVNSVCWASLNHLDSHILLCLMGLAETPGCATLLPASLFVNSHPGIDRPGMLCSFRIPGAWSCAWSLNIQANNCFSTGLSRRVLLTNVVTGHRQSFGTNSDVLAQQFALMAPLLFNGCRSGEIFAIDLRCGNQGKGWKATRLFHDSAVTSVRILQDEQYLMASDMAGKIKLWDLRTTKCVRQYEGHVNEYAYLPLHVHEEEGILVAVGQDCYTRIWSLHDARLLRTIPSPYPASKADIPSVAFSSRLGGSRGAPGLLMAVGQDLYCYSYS

[2] = biological target: T2, FLAG-tagged MCMBP (UniProt Q9BTE3)
T2 sequence: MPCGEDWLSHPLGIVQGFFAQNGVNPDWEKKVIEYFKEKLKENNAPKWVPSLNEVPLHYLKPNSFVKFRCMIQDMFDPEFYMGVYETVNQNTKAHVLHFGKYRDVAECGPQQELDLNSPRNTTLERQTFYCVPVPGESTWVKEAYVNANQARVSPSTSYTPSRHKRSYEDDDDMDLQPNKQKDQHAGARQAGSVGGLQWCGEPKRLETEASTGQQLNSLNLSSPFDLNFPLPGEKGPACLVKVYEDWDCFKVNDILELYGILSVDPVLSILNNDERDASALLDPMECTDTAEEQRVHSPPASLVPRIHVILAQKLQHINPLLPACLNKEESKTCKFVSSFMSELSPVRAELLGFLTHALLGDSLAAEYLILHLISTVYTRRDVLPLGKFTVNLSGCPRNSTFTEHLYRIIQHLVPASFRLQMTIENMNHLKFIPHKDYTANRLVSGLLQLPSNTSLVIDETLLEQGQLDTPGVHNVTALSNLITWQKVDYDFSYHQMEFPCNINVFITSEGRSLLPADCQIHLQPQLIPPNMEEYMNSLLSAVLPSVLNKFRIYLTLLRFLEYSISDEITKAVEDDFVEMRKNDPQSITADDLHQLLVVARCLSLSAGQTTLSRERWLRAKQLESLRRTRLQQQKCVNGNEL

[3] = biological target: T3, FLAG-tagged MCM4 (UniProt P33991)
T3 sequence: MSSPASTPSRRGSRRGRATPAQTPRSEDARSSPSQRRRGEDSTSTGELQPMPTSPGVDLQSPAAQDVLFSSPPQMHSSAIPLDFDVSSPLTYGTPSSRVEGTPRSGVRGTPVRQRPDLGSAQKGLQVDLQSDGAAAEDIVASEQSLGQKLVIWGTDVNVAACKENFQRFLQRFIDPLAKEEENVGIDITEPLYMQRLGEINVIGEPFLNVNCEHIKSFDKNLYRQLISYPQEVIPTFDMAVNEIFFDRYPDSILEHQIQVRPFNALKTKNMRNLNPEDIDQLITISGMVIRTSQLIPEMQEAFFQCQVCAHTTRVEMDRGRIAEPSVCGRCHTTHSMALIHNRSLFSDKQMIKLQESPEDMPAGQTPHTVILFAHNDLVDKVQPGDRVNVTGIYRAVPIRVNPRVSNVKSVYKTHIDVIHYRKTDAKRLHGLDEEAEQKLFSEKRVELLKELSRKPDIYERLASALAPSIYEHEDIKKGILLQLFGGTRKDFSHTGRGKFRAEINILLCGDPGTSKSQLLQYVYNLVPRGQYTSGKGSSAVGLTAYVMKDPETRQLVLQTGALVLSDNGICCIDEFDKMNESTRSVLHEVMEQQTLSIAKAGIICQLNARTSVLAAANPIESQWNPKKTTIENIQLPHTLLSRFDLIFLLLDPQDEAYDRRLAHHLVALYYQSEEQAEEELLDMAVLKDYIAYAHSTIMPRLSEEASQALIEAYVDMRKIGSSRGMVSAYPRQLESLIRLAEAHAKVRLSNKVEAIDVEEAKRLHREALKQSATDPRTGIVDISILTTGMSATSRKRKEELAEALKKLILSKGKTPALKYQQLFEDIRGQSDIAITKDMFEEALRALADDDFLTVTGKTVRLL

[4] = biological target: FLAG-tagged UVSSA (UniProt Q2YD98)
[5] = biological target: FLAG-tagged DNMT1 (UniProt P26358)

Measured: binding

GFP-tagged full-length USP7 W165A (from UniProt Q93009 1-1102) (enzyme)
not listed: [5]
binds: all other assays above

GFP-tagged full-length USP7, wild type (from UniProt Q93009 1-1102) (enzyme)
binds: all assays above
